These are yes or no findings as the source states them, for the method shown. Some binding calls cover weakened binding; strength is not graded here.
Legend:
[1] = biological target: phosphorylated TDP-43 (pTDP-43) in sarkosyl insoluble fractions of FTD type A brain (human) (UniProt Q13148); assay: immunodepletion/immunoprecipitation, Protein G beads, Western blot
[2] = biological target: C-terminal fragments of TDP-43 in the sarkosyl insoluble fraction of FTD type A postmortem brain (human) (UniProt Q13148); assay: immunodepletion and immunoprecipitation with antibody on Protein G beads from the sarkosyl insoluble fraction of FTD type A brain; Western blot probed for total TDP-43
[3] = biological target: phosphorylated TDP-43 (pTDP-43) in sarkosyl insoluble fractions of FTD type A brain (human) (UniProt Q13148); assay: immunodepletion and immunoprecipitation with antibody on Protein G beads from the sarkosyl insoluble fraction of FTD type A brain; Western blot probed for pTDP-43
[4] = biological target: C-terminal fragments of TDP-43 in the sarkosyl insoluble fraction of FTD type A postmortem brain (human) (UniProt Q13148); assay: Western blot, denaturing; lane 2 sarkosyl insoluble fraction of FTD type A frontal cortex
[5] = biological target: aggregated TDP-43 in human FTD brain tissue sections (human) (UniProt Q13148); assay: IHC, FTD brain sections

Protein sequences, listed by entry. Tags and fused reporters are not part of them. Residues count along the entry.
UniProt Q13148, residues 208-414: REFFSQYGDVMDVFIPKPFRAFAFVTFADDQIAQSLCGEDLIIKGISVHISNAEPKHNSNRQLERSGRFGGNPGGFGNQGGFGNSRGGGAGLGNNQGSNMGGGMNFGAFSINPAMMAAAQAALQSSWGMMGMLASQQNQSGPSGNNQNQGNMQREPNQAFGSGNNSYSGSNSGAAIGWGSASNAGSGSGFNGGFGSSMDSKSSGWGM

| binding [5] | Binder | other results |
| --- | --- | --- |
| – | hACI-7069-633B12-Ab1_H19L18 (IgG1 isotype) (antibody, V domains shown) VH: QVQLVQSGAEVKKPGASVKVSCKTSGFTFTEYSMHWVRQAPGQRLEWIGGINPGNAGTSYNQKFKGRVTITVDTSASTAYMELSSLRSEDTAVYYCARESWGQGTTVTVSS VL: DVVMTQSPLSLPVTLGQPASISCKSSQSLLHSDAKTYLNWLQQRPGQSPRRLIYLVSKLDSRVPDRFSGSGSGTDFTLKISRVEAEDLGVYYCFQGTHFPHTFGQGTKLEIK | binding [1]: binds; binding [2]: binds; binding [3]: binds |
| – | ACI-7069-636E5-Ab1 (antibody, mouse IgG2b, V domains shown) VH: EVHLVESGGDLVMPGGSLKLSCAASGFTFSNYGMSWVRQTPDKRLEWVATISSGGKYINYLDSLKGRFTISRDNAKNTLYLQMSSLKSEDTAMYYCAKDYGSGWAWFAYWGQGTLVTVSA VL: QLVLTQSSSASFSLGASAKLTCTLSSQHSTYTIEWYQQQPLKPPKYVMELKKDGSHSTGDGIPDRFSGSSSGADRYLSISNIQPEDEAIYICGVGDTIKEQFVYVFGGGTKVTVL | binding [4]: binds |
| binds | ACI-7069-641H1-Ab2 (antibody, mouse IgG2b, V domains shown) VH: QVQLKESGPGLVAPSQSLSITCTVSGFSLTNYGVHWVRQPPGKGLEWLGLMWAGGSTNYNSALMSRLSISKDNSKSQVFLKMNSLQTDDTAMYYCVIYRTGFAYWGQGTLVTVSA VL: DVLMTQTPLSLPVSLGDQASISCRSSQSIVHTIGNTYLEWYLQKPGQSPKLLIYKVSNRFSGVPDRFSGSGSGTDFTLKISRVEAEDLGVYYCFQGSHVPFTFGSGTKLEIK | – |
| binds | ACI-7071-809F12-Ab1 (antibody, mouse IgG2b, V domains shown) VH: QVQLKESGPGLVAPSQSLSITCTVSGFSLNRNGVQWVRQPPGKGLEWLGVIWPGGSTNCNSALMSRLSISKDNSKSQVFLKMNSLHTDDTGIYYCARVGGNYVWDYNNYAWGQGTLVTVSA VL: DVLMTQTPLSLPVSLGDQASISCRSSQNIVHSIGNTYLEWYLQKPGQSPKLLIYKVSNRFSGVPDRFSGSGSGTDFTLKISRVEAEDLGVYYCFQGSHVPYTFGGGTKLEIR | – |
| binds | ACI-7069-646B7-Ab1 (antibody, mouse IgG2b, V domains shown) VH: QVQLKESGPGLVAPSQSLSITCTVSGFSLTNFGVHWVRQPPGKGLEWLGIMWAGGSTNYNSALMSRLSISKDNSKSQVFLKMNSLQTDDTAMYYCVIYKTGFAYWGQGTLVTVSA VL: DVLMTQTPLSLPVSLGDQASISCRSSQSIVHAIGNTYLEWYLQKPGQSPKLLIYKVSNRFSGVPDRFSGSGSGTDFTLKISRVEAEDLGVYYCFQGSHVPFTFGSGTKLEIK | – |
| binds | ACI-7071-809D9-Ab2 (antibody, mouse IgG2b, V domains shown) VH: QVQLQQSGAELVRPGVSVKISCKGSGYKFTDYSMHWVKQSHTKSLEWIGVISTYYGDTTYNQKFKGKATITVDKSSSTAYMELARLTSEDSAIYYCATYGNFPASFSYWGQGTLVTVSA VL: DIVMTQAAPSIPVTPGESVSISCRSSKSLLHSNGNTYLYWFLQRPGQSPQLLIYRMSNLASGVPDRFSGSGSGTAFTLRISRVEAEDVGVYYCMQHLEYPFTFGSGTKLEIK | – |
